Reference: publication PMC8160739, “Mycobacterium tuberculosis Binds Human Serum Amyloid A, and the Interaction Modulates the Colonization of Human Macrophages and the Transcriptional Response of the Pathogen” (Cells, 2021)

The chains behind the UniProt entries cited, without tags or fusion partners.
UniProt P9WJD9: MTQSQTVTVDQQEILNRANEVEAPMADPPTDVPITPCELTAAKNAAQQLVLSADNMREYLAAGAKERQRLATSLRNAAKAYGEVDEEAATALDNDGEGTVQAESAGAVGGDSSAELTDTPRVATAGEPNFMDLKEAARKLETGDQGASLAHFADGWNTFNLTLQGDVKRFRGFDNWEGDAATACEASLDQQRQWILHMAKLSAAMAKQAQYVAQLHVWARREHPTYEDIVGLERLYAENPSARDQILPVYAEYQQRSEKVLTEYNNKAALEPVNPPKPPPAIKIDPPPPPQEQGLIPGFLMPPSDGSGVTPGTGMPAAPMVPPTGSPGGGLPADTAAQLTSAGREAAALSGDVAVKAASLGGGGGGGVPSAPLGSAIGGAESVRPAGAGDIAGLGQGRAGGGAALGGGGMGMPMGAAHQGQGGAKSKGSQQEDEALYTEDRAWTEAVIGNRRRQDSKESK
UniProt P9WG79: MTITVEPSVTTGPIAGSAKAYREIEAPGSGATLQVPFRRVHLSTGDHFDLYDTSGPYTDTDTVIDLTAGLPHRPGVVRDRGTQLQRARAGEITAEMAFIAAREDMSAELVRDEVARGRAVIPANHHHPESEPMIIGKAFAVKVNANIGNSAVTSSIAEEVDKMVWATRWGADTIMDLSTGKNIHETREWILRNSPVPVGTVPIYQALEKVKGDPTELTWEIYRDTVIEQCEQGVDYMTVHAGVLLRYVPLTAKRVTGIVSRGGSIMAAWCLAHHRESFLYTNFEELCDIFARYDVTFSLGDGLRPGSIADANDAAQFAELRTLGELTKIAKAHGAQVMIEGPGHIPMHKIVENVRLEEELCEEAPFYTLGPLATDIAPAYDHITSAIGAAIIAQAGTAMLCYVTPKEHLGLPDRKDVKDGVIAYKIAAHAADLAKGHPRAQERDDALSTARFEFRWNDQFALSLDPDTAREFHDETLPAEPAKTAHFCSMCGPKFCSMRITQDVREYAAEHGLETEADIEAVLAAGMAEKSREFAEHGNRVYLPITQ

biological target: T1, recombinant human serum amyloid A (SAA1) (human) (UniProt P0DJI8); assay: affinity purification with mass spectrometry; only the target purified
T1 sequence: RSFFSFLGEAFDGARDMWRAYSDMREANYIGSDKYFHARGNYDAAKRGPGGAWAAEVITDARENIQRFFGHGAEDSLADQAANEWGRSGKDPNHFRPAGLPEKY

Row | Molecule | binding
1 | EspB (Rv3881c; secreted ESX-1 substrate protein B, EspB), native, from Mtb whole-cell extract (from UniProt P9WJD9 1-460) | binds
2 | ThiC (Rv0423c; probable thiamine biosynthesis protein ThiC), native, from Mtb whole-cell extract (from UniProt P9WG79 1-547) | binds
3 | TB 18.6 (Rv2140c; conserved protein TB18.6), native, from Mtb whole-cell extract (protein, UniProt P9WFN1 1-176) MTTSPDPYAALPKLPSFSLTSTSITDGQPLATPQVSGIMGAGGADASPQLRWSGFPSETRSFAVTVYDPDAPTLSGFWHWAVANLPANVTELPEGVGDGRELPGGALTLVNDAGMRRYVGAAPPPGHGVHRYYVAVHAVKVEKLDLPEDASPAYLGFNLFQHAIARAVIFGTYEQR | binds
4 | ABC transporter (Rv2477c (protein, UniProt P9WQK3 1-558) MAEFIYTMKKVRKAHGDKVILDDVTLSFYPGAKIGVVGPNGAGKSSVLRIMAGLDKPNNGDAFLATGATVGILQQEPPLNEDKTVRGNVEEGMGDIKIKLDRFNEVAELMATDYTDELMEEMGRLQEELDHADAWDLDAQLEQAMDALRCPPADEPVTNLSGGERRRVALCKLLLSKPDLLLLDEPTNHLDAESVQWLEQHLASYPGAILAVTHDRYFLDNVAEWILELDRGRAYPYEGNYSTYLEKKAERLAVQGRKDAKLQKRLTEELAWVRSGAKARQAKSKARLQRYEEMAAEAEKTRKLDFEEIQIPVGPRLGNVVVEVDHLDKGYDGRALIKDLSFSLPRNGIVGVIGPNGVGKTTLFKTIVGLETPDSGSVKVGETVKLSYVDQARAGIDPRKTVWEVVSDGLDYIQVGQTEVPSRAYVSAFGFKGPDQQKPAGVLSGGERNRLNLALTLKQGGNLILLDEPTNDLDVETLGSLENALLNFPGCAVVISHDRWFLDRTCTHILAWEGDDDNEAKWFWFEGNFGAYEENKVERLGVDAARPHRVTHRKLTRG | binds

Results are given in words; binding and its absence hold for the method and conditions named. Binding seen in cells or lysates may run through a third protein. A yes stands for co-enrichment or nearness to the bait. Other partners may have been found.
